The other results are listed elsewhere or left out.
Compound: COc1ccc(Cn2ccc3ccc(C(=O)NO)cc32)cc1
Test: dose-dependent thermal stabilisation call (2D-TPP, DLPTP, 10% FDR) (binary (1 = stabilised)); higher = stabilised by the compound
Conditions: system: HL-60 intact cells; concentration range 0.04-10 µM

The chains behind the UniProt entries cited, without tags or fusion partners. Where a name states a change or a piece, a line headed by the entry shows the natural chain unless it says otherwise.
UniProt Q96GQ7: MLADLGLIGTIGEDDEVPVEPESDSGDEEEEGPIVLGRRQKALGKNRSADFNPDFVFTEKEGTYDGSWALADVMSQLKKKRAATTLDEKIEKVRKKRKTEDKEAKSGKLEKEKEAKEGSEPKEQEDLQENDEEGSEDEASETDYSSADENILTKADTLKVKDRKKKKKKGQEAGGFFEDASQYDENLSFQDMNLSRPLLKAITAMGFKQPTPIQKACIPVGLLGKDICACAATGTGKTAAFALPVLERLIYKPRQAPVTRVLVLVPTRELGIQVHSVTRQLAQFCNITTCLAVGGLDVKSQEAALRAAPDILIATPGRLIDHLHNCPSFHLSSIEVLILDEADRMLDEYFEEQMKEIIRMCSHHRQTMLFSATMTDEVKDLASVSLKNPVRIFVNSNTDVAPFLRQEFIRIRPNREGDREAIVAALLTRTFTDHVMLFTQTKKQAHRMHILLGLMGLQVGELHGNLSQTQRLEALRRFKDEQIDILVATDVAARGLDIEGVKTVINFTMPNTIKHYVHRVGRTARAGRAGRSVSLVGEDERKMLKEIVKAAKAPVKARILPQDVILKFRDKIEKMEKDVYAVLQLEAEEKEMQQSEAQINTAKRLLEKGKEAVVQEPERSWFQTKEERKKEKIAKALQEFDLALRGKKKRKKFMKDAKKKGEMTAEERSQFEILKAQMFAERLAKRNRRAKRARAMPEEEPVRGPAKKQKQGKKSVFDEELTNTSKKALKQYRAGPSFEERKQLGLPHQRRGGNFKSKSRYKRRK
UniProt O75629: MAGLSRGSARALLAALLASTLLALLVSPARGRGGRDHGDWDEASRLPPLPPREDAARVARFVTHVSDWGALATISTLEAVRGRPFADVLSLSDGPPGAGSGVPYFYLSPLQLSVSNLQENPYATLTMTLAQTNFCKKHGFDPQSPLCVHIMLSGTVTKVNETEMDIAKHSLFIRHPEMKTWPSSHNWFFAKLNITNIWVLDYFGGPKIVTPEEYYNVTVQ
UniProt Q8N8Z6: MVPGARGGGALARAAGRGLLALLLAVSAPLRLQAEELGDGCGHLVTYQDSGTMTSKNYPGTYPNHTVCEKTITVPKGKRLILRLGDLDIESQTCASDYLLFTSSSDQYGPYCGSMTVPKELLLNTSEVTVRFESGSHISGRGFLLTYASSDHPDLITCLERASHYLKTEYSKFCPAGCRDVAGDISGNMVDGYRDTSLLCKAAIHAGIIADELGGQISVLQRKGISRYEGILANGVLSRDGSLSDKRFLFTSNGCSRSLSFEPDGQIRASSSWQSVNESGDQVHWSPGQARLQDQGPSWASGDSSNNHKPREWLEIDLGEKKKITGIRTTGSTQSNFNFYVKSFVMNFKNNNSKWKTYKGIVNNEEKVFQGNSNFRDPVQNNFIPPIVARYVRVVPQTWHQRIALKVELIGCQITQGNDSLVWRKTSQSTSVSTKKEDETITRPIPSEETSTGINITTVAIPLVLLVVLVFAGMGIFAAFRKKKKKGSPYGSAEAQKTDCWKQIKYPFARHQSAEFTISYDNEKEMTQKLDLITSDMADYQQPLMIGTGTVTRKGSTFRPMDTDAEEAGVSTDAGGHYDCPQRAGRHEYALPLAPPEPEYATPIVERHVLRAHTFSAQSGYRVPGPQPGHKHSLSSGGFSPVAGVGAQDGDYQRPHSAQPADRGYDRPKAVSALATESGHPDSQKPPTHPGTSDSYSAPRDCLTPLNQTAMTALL
UniProt Q8TDD1, whole entry: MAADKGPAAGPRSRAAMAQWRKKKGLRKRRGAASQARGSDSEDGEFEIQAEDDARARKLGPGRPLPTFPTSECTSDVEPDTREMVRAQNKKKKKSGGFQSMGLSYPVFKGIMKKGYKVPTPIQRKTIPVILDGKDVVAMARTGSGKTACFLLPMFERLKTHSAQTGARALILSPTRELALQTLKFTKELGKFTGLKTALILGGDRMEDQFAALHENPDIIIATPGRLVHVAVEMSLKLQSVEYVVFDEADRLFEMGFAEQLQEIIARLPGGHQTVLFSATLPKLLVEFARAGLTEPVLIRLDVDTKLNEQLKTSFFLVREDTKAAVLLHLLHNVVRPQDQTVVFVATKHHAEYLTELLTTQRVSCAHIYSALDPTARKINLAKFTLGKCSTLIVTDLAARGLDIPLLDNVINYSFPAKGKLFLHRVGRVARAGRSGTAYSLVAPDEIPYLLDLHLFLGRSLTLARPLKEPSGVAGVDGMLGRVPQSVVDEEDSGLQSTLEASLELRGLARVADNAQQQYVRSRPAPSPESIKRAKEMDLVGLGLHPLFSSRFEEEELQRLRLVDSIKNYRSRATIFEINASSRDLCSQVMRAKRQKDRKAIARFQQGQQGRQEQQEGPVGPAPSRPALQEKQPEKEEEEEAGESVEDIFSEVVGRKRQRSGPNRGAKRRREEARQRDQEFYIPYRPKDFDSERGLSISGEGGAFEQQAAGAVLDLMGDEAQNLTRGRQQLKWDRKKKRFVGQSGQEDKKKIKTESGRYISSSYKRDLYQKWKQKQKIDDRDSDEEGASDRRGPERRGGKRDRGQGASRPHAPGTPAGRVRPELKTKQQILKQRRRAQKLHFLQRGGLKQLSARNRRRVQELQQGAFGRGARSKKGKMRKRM
UniProt Q9H8E8: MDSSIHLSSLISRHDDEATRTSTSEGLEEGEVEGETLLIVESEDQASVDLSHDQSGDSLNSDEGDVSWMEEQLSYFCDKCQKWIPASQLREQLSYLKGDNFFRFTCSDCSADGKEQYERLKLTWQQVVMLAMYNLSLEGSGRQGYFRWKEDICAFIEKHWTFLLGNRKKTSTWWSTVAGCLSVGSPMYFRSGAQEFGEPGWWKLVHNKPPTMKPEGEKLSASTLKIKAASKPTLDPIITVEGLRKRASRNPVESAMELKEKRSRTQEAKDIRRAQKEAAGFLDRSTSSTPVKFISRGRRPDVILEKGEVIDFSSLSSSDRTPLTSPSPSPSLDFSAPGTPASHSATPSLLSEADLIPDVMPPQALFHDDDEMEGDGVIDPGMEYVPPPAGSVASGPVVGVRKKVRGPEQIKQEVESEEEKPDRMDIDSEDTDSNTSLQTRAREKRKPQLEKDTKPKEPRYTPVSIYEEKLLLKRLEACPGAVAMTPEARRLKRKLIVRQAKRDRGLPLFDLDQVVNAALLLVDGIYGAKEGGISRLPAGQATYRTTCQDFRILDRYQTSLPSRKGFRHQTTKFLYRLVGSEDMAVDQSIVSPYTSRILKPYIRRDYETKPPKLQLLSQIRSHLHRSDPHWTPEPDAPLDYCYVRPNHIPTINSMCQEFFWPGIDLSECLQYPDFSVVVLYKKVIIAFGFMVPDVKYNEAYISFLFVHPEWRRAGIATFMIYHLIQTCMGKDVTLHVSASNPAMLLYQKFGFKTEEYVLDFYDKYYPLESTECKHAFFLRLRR
UniProt O00399, whole entry: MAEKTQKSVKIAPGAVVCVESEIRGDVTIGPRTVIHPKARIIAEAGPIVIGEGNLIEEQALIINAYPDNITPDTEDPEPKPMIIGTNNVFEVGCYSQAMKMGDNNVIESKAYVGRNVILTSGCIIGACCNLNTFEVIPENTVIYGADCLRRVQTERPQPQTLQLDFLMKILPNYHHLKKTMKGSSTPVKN
UniProt Q7Z4G1, whole entry: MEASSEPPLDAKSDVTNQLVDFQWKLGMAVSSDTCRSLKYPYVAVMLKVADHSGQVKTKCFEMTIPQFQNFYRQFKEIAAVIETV
UniProt Q9UBF2: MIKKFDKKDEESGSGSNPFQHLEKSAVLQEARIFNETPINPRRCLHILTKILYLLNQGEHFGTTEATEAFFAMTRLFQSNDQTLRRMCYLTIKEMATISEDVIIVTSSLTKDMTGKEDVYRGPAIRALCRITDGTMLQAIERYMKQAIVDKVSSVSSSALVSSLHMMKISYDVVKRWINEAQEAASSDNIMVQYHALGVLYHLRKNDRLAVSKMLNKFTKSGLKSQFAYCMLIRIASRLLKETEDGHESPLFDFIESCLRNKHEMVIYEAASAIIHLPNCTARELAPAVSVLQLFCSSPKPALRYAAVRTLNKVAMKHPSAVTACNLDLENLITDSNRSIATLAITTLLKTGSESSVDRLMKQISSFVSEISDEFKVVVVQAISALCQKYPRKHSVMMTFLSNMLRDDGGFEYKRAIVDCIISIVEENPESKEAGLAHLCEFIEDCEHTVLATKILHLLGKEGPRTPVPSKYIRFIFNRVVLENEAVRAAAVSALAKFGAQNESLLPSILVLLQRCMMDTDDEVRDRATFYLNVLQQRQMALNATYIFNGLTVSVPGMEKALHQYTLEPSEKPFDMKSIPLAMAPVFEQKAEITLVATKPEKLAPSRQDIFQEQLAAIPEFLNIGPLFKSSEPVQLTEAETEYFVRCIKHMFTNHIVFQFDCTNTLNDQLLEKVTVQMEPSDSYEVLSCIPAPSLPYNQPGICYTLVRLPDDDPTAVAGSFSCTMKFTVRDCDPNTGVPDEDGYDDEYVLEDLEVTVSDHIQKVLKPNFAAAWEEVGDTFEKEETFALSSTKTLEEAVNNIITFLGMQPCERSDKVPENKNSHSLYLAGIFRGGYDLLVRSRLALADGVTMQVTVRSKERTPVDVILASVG
UniProt Q9Y4D1, whole entry: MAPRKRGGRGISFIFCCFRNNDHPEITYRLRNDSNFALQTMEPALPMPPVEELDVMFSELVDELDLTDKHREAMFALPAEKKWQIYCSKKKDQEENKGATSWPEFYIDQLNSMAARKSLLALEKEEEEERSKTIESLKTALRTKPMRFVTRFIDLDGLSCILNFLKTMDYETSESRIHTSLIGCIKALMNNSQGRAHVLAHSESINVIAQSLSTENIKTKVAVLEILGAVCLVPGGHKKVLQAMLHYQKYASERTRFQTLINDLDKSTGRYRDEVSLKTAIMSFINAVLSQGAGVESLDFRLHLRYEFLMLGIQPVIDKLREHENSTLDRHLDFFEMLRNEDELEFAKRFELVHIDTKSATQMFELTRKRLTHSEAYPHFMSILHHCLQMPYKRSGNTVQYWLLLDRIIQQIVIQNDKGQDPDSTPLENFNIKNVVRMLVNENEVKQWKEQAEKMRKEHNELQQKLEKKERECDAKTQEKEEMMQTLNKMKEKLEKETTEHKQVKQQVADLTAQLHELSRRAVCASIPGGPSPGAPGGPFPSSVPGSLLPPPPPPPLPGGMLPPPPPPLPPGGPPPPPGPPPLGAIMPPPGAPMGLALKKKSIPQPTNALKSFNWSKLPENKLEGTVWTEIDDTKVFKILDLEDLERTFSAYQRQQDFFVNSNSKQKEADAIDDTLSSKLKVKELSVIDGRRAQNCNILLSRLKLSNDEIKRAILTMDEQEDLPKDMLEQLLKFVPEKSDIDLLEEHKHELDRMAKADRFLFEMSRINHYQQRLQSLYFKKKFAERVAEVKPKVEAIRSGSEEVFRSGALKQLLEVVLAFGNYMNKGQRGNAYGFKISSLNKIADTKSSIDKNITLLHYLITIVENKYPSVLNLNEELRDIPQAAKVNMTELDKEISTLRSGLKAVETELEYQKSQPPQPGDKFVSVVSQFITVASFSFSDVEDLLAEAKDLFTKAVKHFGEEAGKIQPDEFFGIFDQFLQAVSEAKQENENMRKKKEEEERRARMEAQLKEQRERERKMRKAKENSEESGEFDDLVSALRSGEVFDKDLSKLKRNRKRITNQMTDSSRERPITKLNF
UniProt Q6UX07: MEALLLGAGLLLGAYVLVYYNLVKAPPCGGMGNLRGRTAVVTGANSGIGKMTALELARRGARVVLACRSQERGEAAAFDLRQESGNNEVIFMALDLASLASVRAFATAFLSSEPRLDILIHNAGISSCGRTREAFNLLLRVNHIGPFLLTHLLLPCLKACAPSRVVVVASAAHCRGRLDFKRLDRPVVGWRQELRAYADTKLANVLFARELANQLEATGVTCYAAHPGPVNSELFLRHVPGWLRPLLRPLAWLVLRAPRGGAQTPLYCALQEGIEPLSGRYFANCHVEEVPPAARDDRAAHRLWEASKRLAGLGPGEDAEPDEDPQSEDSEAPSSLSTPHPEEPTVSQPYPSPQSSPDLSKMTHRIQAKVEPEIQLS
UniProt Q9NUL7: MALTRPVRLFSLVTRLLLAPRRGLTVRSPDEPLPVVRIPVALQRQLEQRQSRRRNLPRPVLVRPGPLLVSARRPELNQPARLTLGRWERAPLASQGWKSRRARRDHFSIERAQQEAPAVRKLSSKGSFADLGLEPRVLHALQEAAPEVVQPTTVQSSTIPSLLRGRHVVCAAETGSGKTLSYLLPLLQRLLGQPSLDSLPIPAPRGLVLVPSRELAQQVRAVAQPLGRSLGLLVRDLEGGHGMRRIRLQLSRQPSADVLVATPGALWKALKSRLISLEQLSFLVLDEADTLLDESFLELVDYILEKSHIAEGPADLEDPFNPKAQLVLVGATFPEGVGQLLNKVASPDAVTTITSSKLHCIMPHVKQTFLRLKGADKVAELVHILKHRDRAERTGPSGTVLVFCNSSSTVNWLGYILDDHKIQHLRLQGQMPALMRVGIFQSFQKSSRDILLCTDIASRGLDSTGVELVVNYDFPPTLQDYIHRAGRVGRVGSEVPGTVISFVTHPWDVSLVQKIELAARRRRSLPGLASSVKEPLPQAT
UniProt P14854, whole entry: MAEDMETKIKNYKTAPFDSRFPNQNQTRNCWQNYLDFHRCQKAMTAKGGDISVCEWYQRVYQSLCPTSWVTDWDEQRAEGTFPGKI

| Target | dose-dependent thermal stabilisation call |
| --- | --- |
| DDX27 (UniProt Q96GQ7) | inactive: 0 |
| DCUN1D5 (UniProt Q9BTE7) | inactive: 0 |
| DHRS4 (UniProt Q9BTZ2) | inactive: 0 |
| CPSF2 (UniProt Q9P2I0) | inactive: 0 |
| CREG1 (UniProt O75629) | inactive: 0 |
| CUL4B (UniProt Q13620) | inactive: 0 |
| DAGLB (UniProt Q8NCG7) | inactive: 0 |
| DCBLD1 (UniProt Q8N8Z6) | inactive: 0 |
| DDX54 (UniProt Q8TDD1) | inactive: 0 |
| CSRP2BP (UniProt Q9H8E8) | inactive: 0 |
| COTL1 (UniProt Q14019) | inactive: 0 |
| CSNK1A1 (UniProt P48729) | inactive: 0 |
| DDX60L (UniProt Q5H9U9) | inactive: 0 |
| CUL1 (UniProt Q13616) | inactive: 0 |
| DIAPH1 (UniProt O60610) | inactive: 0 |
| COPS7B (UniProt Q9H9Q2) | inactive: 0 |
| CPNE1 (UniProt Q99829) | inactive: 0 |
| DCTN6 (UniProt O00399) | inactive: 0 |
| COMMD6 (UniProt Q7Z4G1) | inactive: 0 |

Shown with bars between the fields: entries from further up.
Target | dose-dependent thermal stabilisation call
DIAPH1 (UniProt O60610) | inactive: 0
COPS7B (UniProt Q9H9Q2) | inactive: 0

(further entries)

| Target | dose-dependent thermal stabilisation call |
| --- | --- |
| COPG2 (UniProt Q9UBF2) | inactive: 0 |
| DAAM1 (UniProt Q9Y4D1) | inactive: 0 |
| COPS2 (UniProt P61201) | inactive: 0 |
| CYP2U1 (UniProt Q7Z449) | inactive: 0 |
| DHRS13 (UniProt Q6UX07) | inactive: 0 |
| COX1 (UniProt P23219) | inactive: 0 |
| CRBN (UniProt Q96SW2) | inactive: 0 |
| CPT1A (UniProt P50416) | inactive: 0 |
| CSTF3 (UniProt Q12996) | inactive: 0 |
| CTSG (UniProt P08311) | inactive: 0 |
| DDX28 (UniProt Q9NUL7) | inactive: 0 |
| COX6B1 (UniProt P14854) | inactive: 0 |
| DDX49 (UniProt Q9Y6V7) | inactive: 0 |
| COMMD3 (UniProt Q9UBI1) | inactive: 0 |
| COQ6 (UniProt Q9Y2Z9) | inactive: 0 |
| DFFB (UniProt O76075) | inactive: 0 |
| DCTD (UniProt P32321) | inactive: 0 |
| CYB5R4 (UniProt Q7L1T6) | inactive: 0 |

Source: the supplement of paper PMC7666118
